The target in the test is eukaryotic translation elongation factor 1 alpha 1 (eEF1A1) (human (endogenous in HCC1806)) (UniProt P68104). Briefly: co-IP; IP with eEF1A1 antibody from HCC1806 lysate (EBC buffer, 1 mg protein, 4 °C overnight, Protein G Dynabeads); cells overexpressing TUBB2B-Flag (WB Flag) or wild type cells (WB TUBB2B antibody).

Chains of the proteins cited; added tags and fusions are not shown.
UniProt P68104: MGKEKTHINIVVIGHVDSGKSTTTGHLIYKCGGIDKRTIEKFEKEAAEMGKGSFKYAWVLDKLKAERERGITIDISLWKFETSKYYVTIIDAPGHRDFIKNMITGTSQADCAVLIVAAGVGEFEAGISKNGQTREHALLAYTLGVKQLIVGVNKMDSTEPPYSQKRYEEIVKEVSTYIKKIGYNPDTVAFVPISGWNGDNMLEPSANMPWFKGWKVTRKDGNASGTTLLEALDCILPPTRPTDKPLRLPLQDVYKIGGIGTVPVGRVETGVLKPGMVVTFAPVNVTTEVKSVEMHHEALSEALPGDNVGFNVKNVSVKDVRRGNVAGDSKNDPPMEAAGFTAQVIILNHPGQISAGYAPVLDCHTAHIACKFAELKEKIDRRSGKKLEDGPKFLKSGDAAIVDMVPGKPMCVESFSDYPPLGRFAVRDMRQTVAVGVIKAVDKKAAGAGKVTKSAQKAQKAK
UniProt Q9BVA1: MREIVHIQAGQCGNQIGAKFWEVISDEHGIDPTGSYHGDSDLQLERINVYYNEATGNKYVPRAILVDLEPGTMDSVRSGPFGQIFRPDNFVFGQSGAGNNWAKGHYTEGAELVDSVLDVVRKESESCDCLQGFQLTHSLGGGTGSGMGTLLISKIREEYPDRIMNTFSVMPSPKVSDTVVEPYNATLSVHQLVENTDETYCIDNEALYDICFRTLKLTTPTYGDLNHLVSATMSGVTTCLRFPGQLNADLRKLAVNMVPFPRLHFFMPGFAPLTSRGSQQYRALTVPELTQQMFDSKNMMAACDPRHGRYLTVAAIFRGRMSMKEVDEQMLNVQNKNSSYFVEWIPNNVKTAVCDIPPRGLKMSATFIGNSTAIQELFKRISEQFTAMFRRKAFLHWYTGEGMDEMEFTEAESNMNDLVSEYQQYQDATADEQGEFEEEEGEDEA

No constants are given. Whether binding was seen depends on the method and setting. Binding seen in cells or lysates may run through a third protein. Some binding calls cover weakened binding; strength is not graded here.

Turning to “Tubulin beta 2B class IIb (TUBB2B), endogenous (from UniProt Q9BVA1 1-445)”, the binding entry was “binds”.

Turning to “flag-TUBB2B (Tubulin beta 2B class IIb, Flag-tagged) (from UniProt Q9BVA1 1-445)”, the binding result is on record as “binds”.

Values taken from PMC11831766.
